# Results deposited as PubChem BioAssay AID1259327 (Drosophila RNAi Screening Center, 2017)
# Test: 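Knock-downs altering cellular ATP with no metal added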
# Cell system: Drosophila S2R+ cells
# Knock-down reagent: long dsRNA against Drosophila genes
# Time to read-out: 5 days (water added on day 4, read one day later)
# Conditions: water added as vehicle, no metal, one day before read-out
# Read-out: 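Luciferase ATP signal per well, normalised to plate mean, duplicate average converted to z-score across plates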
# Direction: ATP z-score: higher = more total ATP than typical wells; ATP luminescence: higher = more total ATP
# Rule for the call: 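Called active when the ATP z-score exceeds 1.5 or falls below -1.5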
# Meaning of the calls: active = hit: ATP up or down; inactive = no clear ATP change
# Shown is a random part of about 3,100 reagents. 378 of them (12%) were called active. 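Hits include both directions; z-score sign shows ATP rise or fall; raw luminescence values are not plate-normalised.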 Reagents against one gene are numbered here. Not stated in the record: the amount of reagent.
gene,dsRNA no.,"ATP z-score, duplicate mean","ATP luminescence, replicate 1 (RLU)","ATP luminescence, replicate 2 (RLU)",Outcome
SLC5A11,1,1.3,4.86e5,6.60e5,inactive
SLC5A11,2,-1.1,4.23e5,3.79e5,inactive
CG4073,1,3.35,3.40e5,1.40e6,active
CG10226,1,0.0492,6.78e5,7.96e5,inactive
Tmtc1,1,-0.276,7.27e5,6.29e5,inactive
Tmtc1,2,1.43,8.47e5,8.60e5,inactive
CG12290,1,0.174,7.47e5,7.01e5,inactive
CG12290,2,0.379,9.52e5,7.92e5,inactive
Tollo,1,-0.414,9.14e5,7.73e5,inactive
Tollo,2,-0.187,4.83e5,4.21e5,inactive

Single entries from the list:
For “ATP luminescence, replicate 2 (RLU)”, CG10226 has 7.96e5
Entry for Tollo #1 in “ATP z-score, duplicate mean”: -0.414
Under “ATP luminescence, replicate 2 (RLU)”, Tollo #2 shows 4.21e5
For “ATP z-score, duplicate mean”, Tmtc1 #1 shows -0.276
Result of CG12290 #2 under “ATP luminescence, replicate 1 (RLU)”: 9.52e5

Further results follow:
gene,dsRNA no.,"ATP z-score, duplicate mean","ATP luminescence, replicate 1 (RLU)","ATP luminescence, replicate 2 (RLU)",Outcome
Ir60d,1,0.164,6.85e5,8.40e5,inactive
CG5348,1,0.167,6.64e5,6.05e5,inactive
CG5348,2,-1.86,3.14e5,3.64e5,active
mthl6,1,0.74,1.00e6,9.82e5,inactive
mthl6,2,-0.243,4.67e5,4.57e5,inactive
rg,1,-0.6,6.64e5,6.24e5,inactive
rg,2,-1.26,6.29e5,7.48e5,inactive
rg,3,-0.421,8.54e5,6.98e5,inactive
rg,4,-1.67,4.06e5,4.72e5,active
rg,5,-1.97,4.34e5,3.90e5,active
rho-7,1,0.677,7.94e5,5.67e5,inactive
Vha100-5,1,0.806,8.19e5,8.05e5,inactive
Vha100-5,2,3.36,3.88e5,7.73e5,active
Orai,1,0.458,6.04e5,6.33e5,inactive
Orai,2,0.751,5.21e5,5.43e5,inactive
Nup154,1,-0.714,9.47e5,1.09e6,inactive
CG14606,1,0.687,9.55e5,1.01e6,inactive
Osi18,1,0.509,9.95e5,9.31e5,inactive
